Laboratory results: article PMC10182070, “Ligand dependent interaction between PC-TP and PPARδ mitigates diet-induced hepatic steatosis in male mice” (Nature Communications, 2023)
These are yes or no findings as the source states them, for the method shown. Binding seen in cells or lysates may run through a third protein. Some results given as binding are weak or reduced against the parent protein; the word gives no strength. Tags and fused reporters may be left off the sequences shown.

Amino acid sequences for entries named in this document (tags omitted). A change or cut given only in a name is not applied to a line headed by its entry.
UniProt Q03181: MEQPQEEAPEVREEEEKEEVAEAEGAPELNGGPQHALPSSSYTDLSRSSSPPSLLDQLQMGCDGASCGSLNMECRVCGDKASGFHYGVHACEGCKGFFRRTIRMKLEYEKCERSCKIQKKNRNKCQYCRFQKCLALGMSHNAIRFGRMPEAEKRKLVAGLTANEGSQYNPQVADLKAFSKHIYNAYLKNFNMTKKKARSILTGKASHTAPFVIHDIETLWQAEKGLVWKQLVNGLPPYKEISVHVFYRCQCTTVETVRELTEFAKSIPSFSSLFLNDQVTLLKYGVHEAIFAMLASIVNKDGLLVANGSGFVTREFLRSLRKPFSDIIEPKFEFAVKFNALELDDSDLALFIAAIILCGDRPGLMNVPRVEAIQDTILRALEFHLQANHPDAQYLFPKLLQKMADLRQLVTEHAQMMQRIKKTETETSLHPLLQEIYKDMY
UniProt Q01469: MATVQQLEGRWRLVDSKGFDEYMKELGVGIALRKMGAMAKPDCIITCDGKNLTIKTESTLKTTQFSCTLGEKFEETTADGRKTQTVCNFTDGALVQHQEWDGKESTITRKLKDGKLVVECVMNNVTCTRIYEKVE

Legend:
[1] = molecular target: Venus-PPARδ (human) (UniProt Q03181); experiment: FRET or BRET; BRET in transfected Huh7 cells, nLuc donor and Venus acceptor; full culture media or 0.5% serum (serum starvation)
[2] = molecular target: full-length PPARδ, split nano-luciferase (nano-PCA) fusion (human) (UniProt Q03181); experiment: split reporter; nano-PCA in transfected Huh7 cells (100 ng/well of each fusion); fresh culture media or DMEM F-12 with 0.5% serum (mutant panel in 0.5% serum); signal normalized to the highest negative control
[3] = molecular target: full-length PPARδ, split nano-luciferase (nano-PCA) fusion (human) (UniProt Q03181); experiment: split reporter; nano-PCA (split nano-luciferase) screen of LTPs against PPARs in transfected HEK293T cells; interactions for each PPAR isoform normalized to the highest interaction; n = 1 biological replicate
[4] = molecular target: Venus-PPARδ (human) (UniProt Q03181); experiment: condition: only cells cultured in MCD media (depleted of methionine and choline); FRET or BRET; BRET in transfected Huh7 cells cultured in DMEM F-12 depleted of methionine and choline (MCD media)

| Molecule | binding [1] | binding [2] | binding [3] | binding [4] |
| --- | --- | --- | --- | --- |
| FABP5, BRET fusion (from UniProt Q01469 1-135) | binds |  |  |  |
| FABP5, split nano-luciferase (nano-PCA) fusion (from UniProt Q01469 1-135) |  | binds |  |  |
| phosphatidylcholine transfer protein (PC-TP), wild type, split nano-luciferase (nano-PCA) fusion (protein, UniProt Q9UKL6 1-214) MELAAGSFSEEQFWEACAELQQPALAGADWQLLVETSGISIYRLLDKKTGLYEYKVFGVLEDCSPTLLADIYMDSDYRKQWDQYVKELYEQECNGETVVYWEVKYPFPMSNRDYVYLRQRRDLDMEGRKIHVILARSTSMPQLGERSGVIRVKQYKQSLAIESDGKKGSKVFMYYFDNPGGQIPSWLINWAAKNGVPNFLKDMARACQNYLKKT |  | binds | binds |  |
| nano-Luciferase (nLuc)-PC-TP (protein, UniProt Q9UKL6 1-214) MELAAGSFSEEQFWEACAELQQPALAGADWQLLVETSGISIYRLLDKKTGLYEYKVFGVLEDCSPTLLADIYMDSDYRKQWDQYVKELYEQECNGETVVYWEVKYPFPMSNRDYVYLRQRRDLDMEGRKIHVILARSTSMPQLGERSGVIRVKQYKQSLAIESDGKKGSKVFMYYFDNPGGQIPSWLINWAAKNGVPNFLKDMARACQNYLKKT | binds |  |  | no binding |
